Assay results as given in patent publication US20140255415A1 (Novartis, published 2014).
These are yes or no findings as the source states them, for the method shown. A result given as binding can be weak or reduced; the word gives no strength. Each block holds one binder with its values, some of them ahead of it.

Legend:
[1] = biological target: human LINGO-2 expressed on CHO-K1 cells (CHO-K1-hLINGO-2) (human); test: FACS saturation binding on CHO-K1-hLINGO-2 cells, Fab format
[2] = biological target: cynomolgus monkey LINGO-1 expressed on CHO-K1 cells (CHO-K1-cmLINGO-1) (cynomolgus monkey); test: FACS saturation binding on transfected CHO-K1 cells, Fab format
[3] = biological target: cynomolgus monkey LINGO-1 expressed on CHO-K1 cells (CHO-K1-cmLINGO-1) (cynomolgus monkey); test: FACS saturation binding on transfected CHO-K1 cells, IgG4 format
[4] = biological target: human LINGO-2 expressed on CHO-K1 cells (CHO-K1-hLINGO-2) (human); test: FACS saturation binding on CHO-K1-hLINGO-2 cells, IgG4 format

binding [1]: binds
binding [2]: binds
B1: anti-LINGO-1 Fab 4785 (Fab, V domains shown)
VH: QVQLQQSGPGLVKPSQTLSLTCAISGDSVSDNSAAWSWIRQSPGRGLEWLGLIYLRSKWDNDYAVSVKSRITINPDTSKNQFSLQLNSVTPEDTAVYYCARTGRADEFDVWGQGTLVTVSS
VL: DIVLTQPPSVSGAPGQRVTISCSGSSSNIGNNYVSWYQQLPGTAPKLLISRNSKRPSGVPDRFSGSKSGTSASLAITGLQSEDEADYYCSTYDTFSIVFGGGTKLTVLG

binding [3]: binds
binding [4]: binds
B2: anti-LINGO-1 IgG4 antibody 4785 (antibody, V domains shown)
VH: B1 VH
VL: B1 VL
